Data: US11052151B2, “Diagnosis and treatment of autism spectrum disorder” (California Institute of Technology, priority 2012, dated 2021)
Counter-ions that a name gives are not always drawn. Residues, ends and D or L forms follow the SMILES beside them.

assay: Metabolomics screening (GC/LC-MS) of sera, poly(I:C) (MIA) versus saline offspring; assay type: in vivo, mice; conditions: 10-week old offspring of poly(I:C)-injected mothers versus controls, p < 0.10

Molecule | Fold Change of serum metabolite
O=C(O)C(=O)Cc1c[nH]c2ccccc12 [indolepyruvate] | 1.57
CC(C)CC(=O)C(=O)O [4-methyl-2-oxopentaoate, 4-methyl-2-oxopentanoate] | 0.7
CCCCCCCCCCCCCCCC(=O)OCC(O)COP(=O)(O)OCCN (stereo not shown) [1-palmitoylglycerophosphoethanolamine] | 0.81
CC12N=CN([C@@H]3O[C@H](CO)[C@@H](O)[C@H]3S)C1=NC=NC2=N (stereo partly shown) [5-methylthioadenosine] | 1.34
eicosenoate | 0.61
CCCCCCCCCCCCCCC(=O)OCC(O)COP(=O)([O-])OCC[N+](C)(C)C (stereo not shown) [1-pentadecanoylglycerophosphocholine] | 1.43
O=C(O)/C=C/c1cnc[nH]1 [transurocanate] | 1.71
CC/C=C\C/C=C\C/C=C\C/C=C\C/C=C\CCCCCC(=O)O [docosapentaenoate (n3 DPA; 22:5n3)] | 0.75
O=C(O)CCc1cnc[nH]1 [imidazole propionate] | 1.35
CCCCC/C=C\C/C=C\CCCCCCCCCC(=O)O [dihomo-linoleate (20:2n6)] | 0.79
O=C(O)CCCCCCCCCCCCCCCCC(=O)O [octadecanedioate] | 0.83
N[C@@H](CS)C(=O)O [cysteine] | 0.73
CCCCCCCC/C=C\CCCCCCCC(=O)OCC(O)COP(=O)(O)OCCN (stereo not shown) [1-oleoylglycerophosphoethanolamine] | 0.7
C[N+](C)(C)[C@@H](Cc1c[nH]c(=S)[nH]1)C(=O)[O-] [ergothioneine] | 0.72
NC(=O)CC[C@H](N)C(=O)O [glutamine] | 1.2
O[C@H]1[C@H](O)[C@@H](O)[C@H](O)[C@@H](O)[C@H]1O [myo-inositol] | 0.86
O=C[C@H](O)[C@H](O)[C@H](O)CO [ribose] | 1.44
1-palmitoylplasmenylethanolamine | 0.73
N=C(N)NCCC[C@H](N)C(=O)O [arginine] | 0.87
equol sulfate | 0.78
O=C(O)[C@H](O)COP(=O)(O)O [3-phosphoglycerate] | 0.51

Molecule | Fold Change of serum metabolite
O=C(O)CNC(=O)Cc1ccccc1 [phenylacetylglycine] | 0.71
CCc1ccc(OS(=O)(=O)[O-])cc1.[K+] [4-ethylphenylsulfate] | 46.39
NCCC(=O)O [beta-alanine] | 0.46
C=CC1=C(C)/C(=C/c2[nH]c(Cc3[nH]c(/C=C4\NC(=O)C(C)=C4C=C)c(C)c3CCC(=O)O)c(CCC(=O)O)c2C)NC1=O [bilirubin (E,E)] | 2.68
CC(C)[C@H](NC(=O)CN)C(=O)O [glycylvaline] (H-Gly-Val-OH) | 0.48
C=C(OP(=O)(O)O)C(=O)O [phosphoenolpyruvate] | 0.56
CC/C=C\C/C=C\C/C=C\C/C=C\C/C=C\C/C=C\CCC(=O)O [docosahexaenoate (DHA; 22:6n3)] | 0.8
13-HODE+9-HODE | 0.72
TDTEDKGEFLSEGGGVR (ASD-related metabolite) | 1.8
O=S(=O)(O)Oc1ccccc1 [phenol sulfate] | 0.68
NCCc1c[nH]c2ccc(O)cc12 [serotonin] | 1.15
CC(=O)N[C@@H](CO)C(=O)O [N-acetylserine] | 0.73
CCCCC/C=C\C[C@H](O)/C=C/C=C\C/C=C\CCCC(=O)O [12-HETE] | 0.69
CCCCCC/C=C\CCCCCCCC(=O)OCC(O)COP(=O)([O-])OCC[N+](C)(C)C (stereo not shown) [1-palmitoleoylglycerophosphocholine] | 1.49
O=C[C@H](O)[C@@H](O)[C@H](O)CO [xylose] | 1.34
CCCCCCCCCCCCCCCCCC(=O)OC[C@@H](O)COP(=O)(O)OC1[C@H](O)[C@H](O)C(O)[C@H](O)[C@H]1O (stereo partly shown) [1-stearoylglycerophosphoinositol] | 0.64
CCC(C)C(=O)C(=O)O (stereo not shown) [3-methyl-2-oxovalerate] | 0.75
O=C(O)CO [glycolate (hydroxyacetate)] | 1.17
CCCCC/C=C\C/C=C\C/C=C\C/C=C\C/C=C\CCC(=O)O [docosapentaenoate (n6 DPA; 22:5n6)] | 0.83
CCCCC/C=C\C/C=C\C/C=C\C/C=C\CCCCCC(=O)O [adrenate] | 0.82

assay: Metabolomics screening (GC/LC-MS) of sera after B. fragilis treatment of MIA offspring; assay type: in vivo, mice; conditions: poly(I:C)+B. fragilis offspring relative to saline controls, p<0.05

Molecule | I:C-Bfrag / CON (fold change of serum metabolite)
sebacate (decanedioate) | 0.64
O=C(O)CCCCCCCCCCCCCCCO [16-hydroxypalmitate] | 0.70
pimelate (heptanedioate) | 0.61
O=C(O)CCCCCCCO [8-hydroxyoctanoate] | 0.72
sarcosine (N-Methylglycine) | 0.64
N=C(N)NCCC[C@H](N)C(=O)O [arginine] | 0.86
O=C(O)c1ccccc1O [salicylate] | 0.68
NCCc1c[nH]c2ccc(O)cc12 [serotonin] | 1.26
3-phenylpropionate (hydrocinnamate) | 0.60
azelate (nonanedioate) | 0.72
glutarate (pentanedioate) | 0.78
